PubChem BioAssay AID652243, Drosophila RNAi Screening Center – 2013
Aim: 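Knock-downs that decrease or increase androgen receptor reporter signal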 (primary screen). Cells: Drosophila S2R+ cells. Reagent: long dsRNA against Drosophila genes. Time to read-out: 72 h (48 h, then 24 h hormone). Conditions: synthetic androgen R1881 at 10 nM for 24 h. Detection: 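Firefly light from an androgen-responsive reporter and Renilla control light per well, raw and unnormalised, for each of two replicates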. Direction: firefly reporter light: higher = more light from androgen-responsive reporter; Renilla control light: higher = more constitutive control signal (cell number, transfection). Active means: 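Hit when the log firefly-to-Renilla ratio dropped or increased by a fixed fold versus the mean of GFP or LacZ controls across duplicate plates; lowering cut given as 1.5 and as 3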. Meaning of the calls: active = hit: reporter lowered or raised; inactive = no hit.
The deposit covers about 24,000 reagents; below is a random part of those that have a named target and a result. Over the whole deposit, 246 (1%) are marked active. 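Plates not normalised; calls are printed but the firefly/Renilla ratio behind them is not deposited; fold cut for lowering reported inconsistently.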 Raw values vary from plate to plate and are shown uncorrected. A plus sign joins genes that one reagent is predicted to hit. Not given: the amount of reagent.

gene | amplicon | firefly reporter light, replicate 1 | firefly reporter light, replicate 2 | Renilla control light, replicate 1 | Renilla control light, replicate 2 | Call
UQCR-11L (Ubiquinol-cytochrome c reductase 11 kDa subunit-like) | DRSC22166 | 1.37e6 | 1.15e6 | 2.19e6 | 1.81e6 | inactive
CCAP (Crustacean cardioactive peptide) | DRSC15674 | 1.71e5 | 1.25e5 | 2.22e6 | 1.88e6 | inactive
Oatp33Eb (Organic anion transporting polypeptide 33Eb) | DRSC02955 | 2.11e5 | 2.62e5 | 1.84e6 | 1.76e6 | inactive
CG15530 | DRSC15067 | 2.08e5 | 2.20e5 | 2.77e6 | 3.27e6 | inactive
CG15530 | DRSC29873 | 9.68e5 | 4.96e5 | 8.77e5 | 9.34e5 | inactive
CG6931 | DRSC10750 | 1.45e6 | 5.18e5 | 1.62e6 | 1.14e6 | inactive
SuUR (Suppressor of Under-Replication) | DRSC11292 | 2.49e5 | 2.79e5 | 3.31e6 | 1.53e6 | inactive
DNAlig4 (DNA ligase 4) | DRSC19436 | 7.48e5 | 9.96e5 | 4.01e6 | 4.22e6 | inactive
CG6661 + asRNA:CR42871 | DRSC10687 | 7.42e5 | 7.71e5 | 1.66e6 | 1.58e6 | inactive
DEF8 (differentially expressed in FDCP 8 homolog) | DRSC09840 | 9.73e5 | 8.78e5 | 1.78e6 | 1.89e6 | inactive
schlank | DRSC18102 | 2.99e5 | 4.01e5 | 2.82e6 | 1.82e6 | inactive
schlank | DRSC18313 | 3.13e5 | 3.48e5 | 3.34e6 | 2.79e6 | inactive
Atg4b (Autophagy-related 4b) | DRSC15988 | 63353 | 76781 | 4.19e5 | 3.78e5 | inactive
Atg4b (Autophagy-related 4b) | DRSC25480 | 7.92e5 | 6.23e5 | 7.84e5 | 9.84e5 | inactive
CR41604 (retired record) | DRSC38594 | 1.01e6 | 8.16e5 | 1.74e6 | 2.24e6 | inactive
S2P (site-2 protease) | DRSC07311 | 2.53e5 | 1.93e5 | 8.84e5 | 1.25e6 | inactive
S2P (site-2 protease) | DRSC27864 | 9.41e5 | 6.24e5 | 2.79e6 | 1.47e6 | inactive
Nek2 | DRSC18124 | 4.62e5 | 6.06e5 | 1.53e6 | 1.76e6 | inactive
Nek2 | DRSC26714 | 4.69e5 | 3.72e5 | 5.57e5 | 6.53e5 | inactive
Nek2 | DRSC37047 | – | – | – | – | inactive
CG32201 | DRSC22452 | 6.76e5 | 9.42e5 | 8.54e5 | 1.72e6 | inactive
CG9747 | DRSC16554 | 3.12e5 | 3.27e5 | 3.37e6 | 4.08e6 | inactive
CG9747 | DRSC23910 | 7.03e5 | 7.13e5 | 9.64e5 | 9.78e5 | inactive
TppII (Tripeptidyl-peptidase II) | DRSC07565 | 6.67e5 | 5.64e5 | 1.17e6 | 9.13e5 | inactive
jv (javelin) | DRSC08831 | 1.12e5 | 96168 | 3.57e5 | 2.38e5 | inactive
jv (javelin) | DRSC25736 | 8.07e5 | 7.85e5 | 2.69e5 | 3.69e5 | inactive
Dhdds (Dehydrodolichyl diphosphate synthase subunit) | DRSC17756 | 3.00e5 | 2.66e5 | 2.16e6 | 2.51e6 | inactive
Dhdds (Dehydrodolichyl diphosphate synthase subunit) | DRSC29011 | 3.98e5 | 3.12e5 | 7.82e5 | 6.81e5 | inactive
Dtwd2 + Obp84a | DRSC12603 | 1.70e5 | 1.81e5 | 2.78e6 | 2.42e6 | inactive
Dtwd2 + Obp84a | DRSC26806 | 4.03e5 | 3.27e5 | 3.72e5 | 3.51e5 | inactive
CG7115 | DRSC02000 | 2.83e5 | 2.84e5 | 2.14e6 | 1.77e6 | inactive
CG7115 | DRSC29878 | 5.06e5 | 4.27e5 | 8.27e5 | 7.82e5 | inactive
CG7115 | DRSC37042 | – | – | – | – | inactive
MED11 (Mediator complex subunit 11) | DRSC23091 | 5.78e5 | 8.27e5 | 1.39e6 | 1.92e6 | inactive
MED11 (Mediator complex subunit 11) | DRSC25948 | 3.05e5 | 3.30e5 | 7.67e5 | 7.02e5 | inactive
rec (recombination-defective) | DRSC14998 | 1.29e5 | 1.79e5 | 1.97e6 | 2.80e6 | inactive
rec (recombination-defective) | DRSC15656 | 1.14e5 | 1.04e5 | 2.10e6 | 2.21e6 | inactive
blw (bellwether) | DRSC04675 | 3.36e5 | 3.57e5 | 2.05e6 | 1.94e6 | inactive
Hydr2 (alpha/beta hydrolase2) | DRSC00607 | 1.04e6 | 1.15e6 | 2.67e6 | 2.39e6 | inactive
Nepl20 (Neprilysin-like 20) | DRSC14878 | 2.21e5 | 1.79e5 | 2.91e6 | 2.72e6 | inactive
CG34167 | DRSC38911 | 8.13e5 | 7.01e5 | 2.33e6 | 2.06e6 | inactive
Tsc1 | DRSC16890 | 59813 | 65200 | 5.10e5 | 5.47e5 | inactive
Tsc1 | DRSC27643 | 3.57e5 | 3.96e5 | 6.17e5 | 6.74e5 | inactive
CG7702 | DRSC16293 | 66401 | 84257 | 5.08e5 | 5.36e5 | inactive
CG7702 | DRSC27592 | 2.42e5 | 2.66e5 | 3.79e5 | 5.58e5 | inactive
CG3734 | DRSC15509 | 1.77e5 | 2.05e5 | 2.60e6 | 2.67e6 | inactive
CG3734 | DRSC25892 | 5.06e5 | 4.17e5 | 8.89e5 | 7.17e5 | inactive
CG7194 | DRSC10784 | 1.64e5 | 1.68e5 | 1.54e6 | 1.31e6 | inactive
CG14628 | DRSC18626 | 3.32e5 | 2.74e5 | 3.58e6 | 2.86e6 | inactive
CG33703 | DRSC37834 | 5.33e5 | 5.56e5 | 1.46e6 | 1.47e6 | inactive
CG4619 | DRSC02764 | 8.33e5 | 7.63e5 | 2.23e6 | 2.54e6 | inactive
CG6763 | DRSC16110 | 1.26e5 | 1.48e5 | 1.96e6 | 1.82e6 | inactive
CG6763 | DRSC24299 | 5.84e5 | 8.85e5 | 8.57e5 | 9.90e5 | inactive
CG5928 | DRSC18391 | 3.96e5 | 3.79e5 | 2.35e6 | 2.48e6 | inactive
CG5928 | DRSC25853 | 3.21e5 | 3.41e5 | 7.58e5 | 6.75e5 | inactive
Brd (Bearded) | DRSC09685 | 3.28e5 | 2.82e5 | 2.01e6 | 2.00e6 | inactive
CG14118 | DRSC10122 | 1.71e5 | 1.44e5 | 2.34e6 | 1.24e6 | inactive
Mul1 (Mitochondrial E3 ubiquitin protein ligase 1) | DRSC08174 | 79121 | 1.01e5 | 1.17e6 | 1.57e6 | inactive
Mul1 (Mitochondrial E3 ubiquitin protein ligase 1) | DRSC25694 | 5.59e5 | 7.10e5 | 8.58e5 | 9.14e5 | inactive

Entries above whose target name begins with J or j:
gene | amplicon | firefly reporter light, replicate 1 | firefly reporter light, replicate 2 | Renilla control light, replicate 1 | Renilla control light, replicate 2 | Call
jv (javelin) | DRSC08831 | 1.12e5 | 96168 | 3.57e5 | 2.38e5 | inactive
jv (javelin) | DRSC25736 | 8.07e5 | 7.85e5 | 2.69e5 | 3.69e5 | inactive
